Among the data in US20250282881A1 are binding values, retold here.

These are yes or no findings as the source states them, for the method shown. Binding can be weak; no strength is given.

The experiment has as its target cyno OX40 on cells (CHO-K1-cOX40) (cyno). Nature of the experiment: FACS on CHO-K1-cOX40 cells.

B1: EM1007-44c (antibody, human IgG1, V domains shown)
VH: QVQLQQSGPELVKPGASVTISCKASGHAFSSSWMNWVKQRPGKGLEWIGRIYPGDEITNYNGKFKDKATLTADKSSSTAYMQLSSLTFEDSAVYFCARDLLMPYWGQGTLVTVSA
VL: DIVMTQTAFSNPVTLGTSASISCRSSKSLLYSNGITYLYWYLQKPGQSPHLLIYQMSNLAPGVPDRFSSSGSGTDFTLRISRVEAEDVGIYYCAQNLELPFTFGSGTKLEIK
As to B1, the binding result is given as “binds”.
